Reference: the supplement of paper PMC10849652
The other results are listed elsewhere or left out.

By UniProt entry, the sequences of proteins in these tests, tags left out. Where a name states a change or a piece, a line headed by the entry shows the natural chain unless it says otherwise.
UniProt Q9NX70: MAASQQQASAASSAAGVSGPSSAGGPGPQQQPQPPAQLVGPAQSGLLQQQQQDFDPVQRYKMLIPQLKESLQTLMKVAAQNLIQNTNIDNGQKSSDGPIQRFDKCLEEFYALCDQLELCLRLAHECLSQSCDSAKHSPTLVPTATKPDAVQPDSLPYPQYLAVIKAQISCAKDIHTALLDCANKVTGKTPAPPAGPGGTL
UniProt P55082: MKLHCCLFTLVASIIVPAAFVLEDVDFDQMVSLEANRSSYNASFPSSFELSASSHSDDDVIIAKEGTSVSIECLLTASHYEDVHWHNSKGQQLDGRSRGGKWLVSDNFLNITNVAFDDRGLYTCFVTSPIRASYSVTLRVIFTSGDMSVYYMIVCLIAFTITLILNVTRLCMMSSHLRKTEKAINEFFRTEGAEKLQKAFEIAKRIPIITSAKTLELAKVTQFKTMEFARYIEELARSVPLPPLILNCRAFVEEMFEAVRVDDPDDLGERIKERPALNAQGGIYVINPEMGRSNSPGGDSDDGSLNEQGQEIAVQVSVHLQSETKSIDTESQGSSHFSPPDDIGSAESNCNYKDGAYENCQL
UniProt Q9H204: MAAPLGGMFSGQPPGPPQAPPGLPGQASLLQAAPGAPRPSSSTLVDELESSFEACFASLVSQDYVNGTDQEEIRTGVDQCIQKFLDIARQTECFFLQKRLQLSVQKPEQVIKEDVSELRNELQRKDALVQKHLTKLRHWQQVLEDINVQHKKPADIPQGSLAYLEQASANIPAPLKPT
UniProt O43462: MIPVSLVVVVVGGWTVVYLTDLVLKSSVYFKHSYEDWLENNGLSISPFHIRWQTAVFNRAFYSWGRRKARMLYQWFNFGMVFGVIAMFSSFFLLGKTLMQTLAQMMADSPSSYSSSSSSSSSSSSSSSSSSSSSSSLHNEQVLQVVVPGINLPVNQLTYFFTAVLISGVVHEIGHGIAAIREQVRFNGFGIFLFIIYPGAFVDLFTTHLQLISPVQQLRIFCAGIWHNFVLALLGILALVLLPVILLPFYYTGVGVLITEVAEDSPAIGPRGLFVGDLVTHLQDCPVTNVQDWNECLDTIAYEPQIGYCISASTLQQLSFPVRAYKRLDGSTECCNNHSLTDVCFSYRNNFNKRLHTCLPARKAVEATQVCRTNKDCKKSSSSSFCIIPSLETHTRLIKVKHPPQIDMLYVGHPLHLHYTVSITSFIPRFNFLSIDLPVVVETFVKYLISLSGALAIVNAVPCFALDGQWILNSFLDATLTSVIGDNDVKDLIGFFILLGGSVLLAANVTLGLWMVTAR
UniProt P42679: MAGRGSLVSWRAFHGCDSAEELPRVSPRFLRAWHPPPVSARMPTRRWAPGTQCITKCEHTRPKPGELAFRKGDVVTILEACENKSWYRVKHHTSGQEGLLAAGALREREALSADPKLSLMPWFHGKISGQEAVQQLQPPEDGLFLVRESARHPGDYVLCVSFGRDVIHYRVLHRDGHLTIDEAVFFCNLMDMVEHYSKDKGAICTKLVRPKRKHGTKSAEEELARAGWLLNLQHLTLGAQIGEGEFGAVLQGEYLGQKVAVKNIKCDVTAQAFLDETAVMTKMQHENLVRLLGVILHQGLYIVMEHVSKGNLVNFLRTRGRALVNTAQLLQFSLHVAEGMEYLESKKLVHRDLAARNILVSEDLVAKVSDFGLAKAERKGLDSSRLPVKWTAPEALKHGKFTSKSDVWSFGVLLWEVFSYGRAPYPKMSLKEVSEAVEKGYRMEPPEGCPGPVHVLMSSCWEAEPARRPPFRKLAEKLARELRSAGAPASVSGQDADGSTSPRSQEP
UniProt Q06413, whole entry, looked up: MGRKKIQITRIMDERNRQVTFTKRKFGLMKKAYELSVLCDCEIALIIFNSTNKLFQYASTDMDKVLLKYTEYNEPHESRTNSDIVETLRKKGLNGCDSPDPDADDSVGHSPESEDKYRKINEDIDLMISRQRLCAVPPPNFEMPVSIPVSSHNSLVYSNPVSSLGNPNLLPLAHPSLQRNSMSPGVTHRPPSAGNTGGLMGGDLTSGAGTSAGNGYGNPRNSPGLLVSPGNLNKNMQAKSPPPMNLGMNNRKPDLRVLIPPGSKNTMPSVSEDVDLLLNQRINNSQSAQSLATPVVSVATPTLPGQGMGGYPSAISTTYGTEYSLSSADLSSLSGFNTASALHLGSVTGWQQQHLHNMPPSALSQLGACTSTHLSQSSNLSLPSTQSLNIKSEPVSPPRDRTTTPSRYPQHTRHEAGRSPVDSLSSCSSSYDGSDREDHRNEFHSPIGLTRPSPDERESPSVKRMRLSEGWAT
UniProt Q6P0Q8: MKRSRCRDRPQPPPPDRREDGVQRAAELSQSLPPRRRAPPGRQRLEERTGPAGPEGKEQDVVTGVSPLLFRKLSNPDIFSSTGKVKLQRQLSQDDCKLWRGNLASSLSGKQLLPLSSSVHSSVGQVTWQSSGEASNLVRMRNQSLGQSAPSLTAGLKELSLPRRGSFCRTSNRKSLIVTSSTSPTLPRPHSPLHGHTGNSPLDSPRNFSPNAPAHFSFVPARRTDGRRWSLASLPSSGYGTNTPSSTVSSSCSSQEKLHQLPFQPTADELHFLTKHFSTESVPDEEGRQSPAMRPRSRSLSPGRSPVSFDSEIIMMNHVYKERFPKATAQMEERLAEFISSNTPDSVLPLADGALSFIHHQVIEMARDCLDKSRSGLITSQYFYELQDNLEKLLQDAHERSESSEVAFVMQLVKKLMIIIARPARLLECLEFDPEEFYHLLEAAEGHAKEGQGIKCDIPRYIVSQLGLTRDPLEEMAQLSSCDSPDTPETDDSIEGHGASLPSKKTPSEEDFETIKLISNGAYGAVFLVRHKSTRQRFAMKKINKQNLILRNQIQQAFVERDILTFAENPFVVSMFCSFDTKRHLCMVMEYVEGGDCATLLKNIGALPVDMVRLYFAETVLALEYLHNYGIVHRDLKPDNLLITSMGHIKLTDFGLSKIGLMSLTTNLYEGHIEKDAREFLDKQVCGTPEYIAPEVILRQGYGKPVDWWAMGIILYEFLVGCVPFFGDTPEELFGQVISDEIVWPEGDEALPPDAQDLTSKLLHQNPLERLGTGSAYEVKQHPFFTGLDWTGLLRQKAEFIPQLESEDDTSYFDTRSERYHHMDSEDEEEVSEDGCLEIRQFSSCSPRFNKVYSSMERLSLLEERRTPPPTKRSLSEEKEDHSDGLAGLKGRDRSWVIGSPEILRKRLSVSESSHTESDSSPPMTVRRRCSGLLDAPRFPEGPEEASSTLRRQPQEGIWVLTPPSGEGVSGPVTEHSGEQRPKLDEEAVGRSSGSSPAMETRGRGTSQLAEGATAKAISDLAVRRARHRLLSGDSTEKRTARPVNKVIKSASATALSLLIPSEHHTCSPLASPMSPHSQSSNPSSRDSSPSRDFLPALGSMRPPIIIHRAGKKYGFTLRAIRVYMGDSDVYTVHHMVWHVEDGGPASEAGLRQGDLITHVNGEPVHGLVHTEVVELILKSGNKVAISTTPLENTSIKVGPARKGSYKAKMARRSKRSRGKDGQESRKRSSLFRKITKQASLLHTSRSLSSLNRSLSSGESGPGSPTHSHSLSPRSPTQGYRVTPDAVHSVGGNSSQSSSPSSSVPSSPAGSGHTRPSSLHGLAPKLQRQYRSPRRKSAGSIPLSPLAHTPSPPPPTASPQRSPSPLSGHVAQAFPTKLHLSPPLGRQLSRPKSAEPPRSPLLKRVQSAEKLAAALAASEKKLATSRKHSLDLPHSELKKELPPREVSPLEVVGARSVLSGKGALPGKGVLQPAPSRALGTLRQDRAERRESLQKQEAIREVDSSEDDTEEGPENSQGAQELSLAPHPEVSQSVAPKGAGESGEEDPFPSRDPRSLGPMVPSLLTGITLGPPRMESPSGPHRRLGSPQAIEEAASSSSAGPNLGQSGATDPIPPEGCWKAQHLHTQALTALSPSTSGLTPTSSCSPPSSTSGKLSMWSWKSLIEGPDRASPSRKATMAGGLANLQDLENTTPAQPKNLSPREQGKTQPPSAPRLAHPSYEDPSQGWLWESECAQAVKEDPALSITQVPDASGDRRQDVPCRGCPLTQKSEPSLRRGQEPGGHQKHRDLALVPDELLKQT
UniProt Q96PE7: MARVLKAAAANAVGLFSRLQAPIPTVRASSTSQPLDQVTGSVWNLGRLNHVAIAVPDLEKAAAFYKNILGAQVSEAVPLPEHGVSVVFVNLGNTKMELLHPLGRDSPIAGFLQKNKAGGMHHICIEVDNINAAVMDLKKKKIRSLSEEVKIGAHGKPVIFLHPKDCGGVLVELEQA
UniProt P21741: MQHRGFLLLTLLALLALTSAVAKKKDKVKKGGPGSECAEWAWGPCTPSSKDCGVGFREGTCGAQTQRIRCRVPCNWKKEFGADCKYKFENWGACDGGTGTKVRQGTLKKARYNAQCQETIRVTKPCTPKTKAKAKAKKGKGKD
UniProt Q9H3U5: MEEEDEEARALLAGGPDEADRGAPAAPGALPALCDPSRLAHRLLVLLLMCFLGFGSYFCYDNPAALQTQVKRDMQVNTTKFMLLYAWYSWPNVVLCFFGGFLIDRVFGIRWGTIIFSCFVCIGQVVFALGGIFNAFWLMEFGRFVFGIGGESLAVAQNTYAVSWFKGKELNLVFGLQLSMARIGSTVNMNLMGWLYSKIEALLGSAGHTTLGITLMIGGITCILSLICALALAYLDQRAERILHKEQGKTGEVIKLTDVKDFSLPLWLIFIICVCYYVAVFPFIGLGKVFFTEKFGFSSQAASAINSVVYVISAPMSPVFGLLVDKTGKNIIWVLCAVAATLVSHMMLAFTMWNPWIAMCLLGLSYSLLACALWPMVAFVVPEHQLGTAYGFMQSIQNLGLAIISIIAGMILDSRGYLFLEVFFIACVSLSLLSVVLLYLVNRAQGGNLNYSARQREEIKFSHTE
UniProt Q6NUT3: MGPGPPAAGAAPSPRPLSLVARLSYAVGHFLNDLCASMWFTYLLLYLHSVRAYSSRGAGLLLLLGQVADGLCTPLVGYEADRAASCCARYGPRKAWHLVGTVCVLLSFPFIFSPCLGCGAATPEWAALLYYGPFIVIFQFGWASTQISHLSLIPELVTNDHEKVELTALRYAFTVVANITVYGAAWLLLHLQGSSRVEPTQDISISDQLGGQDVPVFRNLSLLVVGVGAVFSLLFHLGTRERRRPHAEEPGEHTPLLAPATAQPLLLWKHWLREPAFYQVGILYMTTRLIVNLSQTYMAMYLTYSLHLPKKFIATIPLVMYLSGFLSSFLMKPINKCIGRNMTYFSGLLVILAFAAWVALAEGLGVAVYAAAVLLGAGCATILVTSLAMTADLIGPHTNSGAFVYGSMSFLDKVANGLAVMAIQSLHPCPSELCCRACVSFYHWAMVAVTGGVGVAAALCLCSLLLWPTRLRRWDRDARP
UniProt Q9NWA0: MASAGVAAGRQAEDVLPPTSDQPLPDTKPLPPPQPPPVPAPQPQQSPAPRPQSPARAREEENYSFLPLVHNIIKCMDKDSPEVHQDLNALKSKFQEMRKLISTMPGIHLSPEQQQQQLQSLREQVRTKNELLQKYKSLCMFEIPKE
UniProt Q9NS73: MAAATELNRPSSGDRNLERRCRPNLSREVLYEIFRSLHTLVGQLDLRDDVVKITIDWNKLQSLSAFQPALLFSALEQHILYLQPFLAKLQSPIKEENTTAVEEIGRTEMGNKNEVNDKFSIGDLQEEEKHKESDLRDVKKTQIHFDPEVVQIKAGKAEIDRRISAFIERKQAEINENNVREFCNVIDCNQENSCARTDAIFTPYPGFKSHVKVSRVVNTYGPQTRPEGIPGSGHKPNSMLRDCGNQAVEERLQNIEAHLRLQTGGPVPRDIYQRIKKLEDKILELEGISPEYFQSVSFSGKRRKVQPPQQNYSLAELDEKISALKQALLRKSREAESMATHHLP
UniProt P48740: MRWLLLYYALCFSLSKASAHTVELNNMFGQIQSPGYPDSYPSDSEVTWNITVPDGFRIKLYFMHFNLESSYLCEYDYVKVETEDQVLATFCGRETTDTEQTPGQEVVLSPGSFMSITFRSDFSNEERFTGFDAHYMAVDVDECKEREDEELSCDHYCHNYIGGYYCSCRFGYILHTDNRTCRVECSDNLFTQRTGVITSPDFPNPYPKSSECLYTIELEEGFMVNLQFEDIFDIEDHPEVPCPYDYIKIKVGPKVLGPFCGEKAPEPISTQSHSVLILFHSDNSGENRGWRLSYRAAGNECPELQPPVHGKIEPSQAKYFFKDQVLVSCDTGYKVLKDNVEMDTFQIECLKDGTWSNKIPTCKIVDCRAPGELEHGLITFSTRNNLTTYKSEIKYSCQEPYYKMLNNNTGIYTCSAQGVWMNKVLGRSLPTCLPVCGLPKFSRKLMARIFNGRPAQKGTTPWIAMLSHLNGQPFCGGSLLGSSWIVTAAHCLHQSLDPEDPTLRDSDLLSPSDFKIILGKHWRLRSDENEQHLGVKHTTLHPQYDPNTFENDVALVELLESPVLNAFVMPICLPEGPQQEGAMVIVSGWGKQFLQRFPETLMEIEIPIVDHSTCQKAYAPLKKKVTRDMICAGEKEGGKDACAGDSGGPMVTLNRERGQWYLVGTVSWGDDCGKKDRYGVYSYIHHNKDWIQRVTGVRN

Legend:
Experiment in all cases: log2 fold change, soluble protein after heating vs DMSO (PISA); higher = thermal stabilisation; K562 cells, 10 uM, 30 min; active = over 0.2 and 3.5 SD of the protein, either way, in both replicates (recomputed)
filanesib = compound: CON(C)C(=O)N1N=C(c2cc(F)ccc2F)S[C@@]1(CCCN)c1ccccc1 [filanesib]
In short: (§1)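 K562 cells at 2×10^6 cells/mL were exposed to 10 μM compound for 30 min, then aliquots were heated for 3 min across 48°C-58°C, pooled, and extracted in PBS containing 0.5% NP-40 at 4°C. The supernatant after 21,000xg for 90 min was taken as soluble protein and measured by TMTpro 16plex LC-MS/MS with channel sums equalised. Thermal stability is reported relative to control samples, with values from duplicates. Fold changes are given on a log2 scale.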

[1] = compound: COc1cc2nc(-c3cc(F)ccc3O)nc(N[C@@H]3CNC[C@H]3C(C)(C)O)c2cc1OC
In short: as §1

gefitinib = compound: COc1cc2ncnc(Nc3ccc(F)c(Cl)c3)c2cc1OCCCN1CCOCC1 [gefitinib]
In short: as §1

lapatinib = compound: CS(=O)(=O)CCNCc1ccc(-c2ccc3ncnc(Nc4ccc(OCc5cccc(F)c5)c(Cl)c4)c3c2)o1 [lapatinib]
In short: as §1

[2] = compound: CS(=O)(=O)c1ccc(-c2cnc(N)c(C(=O)Nc3ccccc3)n2)cc1
In short: as §1

[3] = compound: C[C@@H]1COCCN1C2=NC(=NC(=C2)C3(CC3)S(=O)(=O)C)C4=C5C=CNC5=CC=C4
In short: as §1

tozasertib = compound: Cc1cc(Nc2cc(N3CCN(C)CC3)nc(Sc3ccc(NC(=O)C4CC4)cc3)n2)n[nH]1 [tozasertib]
In short: as §1

idasanutlin = compound: COc1cc(C(=O)O)ccc1NC(=O)[C@@H]1N[C@@H](CC(C)(C)C)[C@](C#N)(c2ccc(Cl)cc2F)[C@H]1c1cccc(Cl)c1F [idasanutlin]
In short: as §1

alisertib = compound: COc1cc(Nc2ncc3c(n2)-c2ccc(Cl)cc2C(c2c(F)cccc2OC)=NC3)ccc1C(=O)O [alisertib]
In short: as §1

[4] = compound: COc1cccc2cc(-c3nc([C@H]4CC[C@H](C(=O)O)CC4)n4ncnc(N)c34)[nH]c12
In short: as §1

[5] = compound: Cc1cc(SCc2sc(-c3ccc(C(F)(F)F)cc3)nc2C)ccc1OCC(=O)O
In short: as §1

[6] = compound: COC1=CC=C(C=C1)CN2C=CC3=C2C=C(C=C3)C(=O)NO
In short: as §1

zotarolimus = compound: CO[C@H]1C[C@@H]2CC[C@@H](C)[C@@](O)(O2)C(=O)C(=O)N2CCCC[C@H]2C(=O)O[C@H]([C@H](C)C[C@@H]2CC[C@H](n3cnnn3)[C@H](OC)C2)CC(=O)[C@H](C)/C=C(\C)[C@@H](O)[C@@H](OC)C(=O)[C@H](C)C[C@H](C)/C=C/C=C/C=C/1C [zotarolimus]
In short: as §1

pictilisib = compound: CS(=O)(=O)N1CCN(Cc2cc3nc(-c4cccc5[nH]ncc45)nc(N4CCOCC4)c3s2)CC1 [pictilisib]
In short: as §1

crizotinib = compound: C[C@@H](Oc1cc(-c2cnn(C3CCNCC3)c2)cnc1N)c1c(Cl)ccc(F)c1Cl [crizotinib]
In short: as §1

[7] = compound: C[C@H](C1=CC=C(C=C1)C(=O)NC2=C3C=CNC3=NC=C2)N
In short: as §1

gandotinib = compound: Cc1cc(Nc2cc(CN3CCOCC3)c3nc(C)c(Cc4ccc(Cl)cc4F)n3n2)n[nH]1 [gandotinib]
In short: as §1

doramapimod = compound: Cc1ccc(-n2nc(C(C)(C)C)cc2NC(=O)Nc2ccc(OCCN3CCOCC3)c3ccccc23)cc1 [doramapimod]
In short: as §1

ispinesib = compound: Cc1ccc(C(=O)N(CCCN)[C@@H](c2nc3cc(Cl)ccc3c(=O)n2Cc2ccccc2)C(C)C)cc1 [ispinesib]
In short: as §1

duvelisib = compound: C[C@H](Nc1ncnc2nc[nH]c12)c1cc2cccc(Cl)c2c(=O)n1-c1ccccc1 [duvelisib]
In short: as §1

Measured: log2 fold change

MEF2A (UniProt Q02078)
inactive: filanesib 0.21 | [1] 0.042 | gefitinib -0.036 | lapatinib 0.07 | [2] 0.061 | [3] 0.136 | tozasertib -0.011

MED29 (UniProt Q9NX70)
active: [1] -0.77
inactive: idasanutlin 0.1 | alisertib -0.571 | gefitinib 0.058 | [4] 0.115 | lapatinib -0.028 | [5] 0.171

MGRN1 isoform 2 (UniProt O60291)
inactive: [6] -0.015 | zotarolimus -0.017 | idasanutlin -0.108 | [1] 0.069 | lapatinib -0.238 | pictilisib -0.004 | crizotinib -0.015 | [7] 0.225 | gandotinib 0.06 | doramapimod 0.012 | ispinesib -0.225

MFAP3 (UniProt P55082)
inactive: filanesib -0.092 | idasanutlin 0.192 | [2] -0.012 | [3] 0.045 | [5] 0.003

MEGF10 (UniProt Q96KG7)
inactive: [1] -0.044 | lapatinib 0.136 | tozasertib -0.222

MED28 (UniProt Q9H204)
inactive: filanesib 0.074 | zotarolimus 0.043 | idasanutlin 0.06 | alisertib -0.074 | [1] -0.076 | gefitinib -0.033 | [4] -0.012 | lapatinib 0.082 | pictilisib 0.058 | [2] 0.145 | [7] -0.12 | duvelisib 0.108 | gandotinib -0.026 | tozasertib 0.013 | [5] 0.011 | ispinesib 0.132

MBTPS2 (UniProt O43462)
inactive: [6] -0.13 | zotarolimus 0.203 | [1] -0.544 | gefitinib 0.025 | lapatinib 0.163 | pictilisib 0.168 | crizotinib 0.284 | [3] -0.119 | [7] -0.23 | duvelisib -0.044 | gandotinib 0.133 | tozasertib 0.042 | [5] -0.109 | doramapimod 0.015 | ispinesib -0.189

MEIS2 (UniProt O14770)
inactive: [6] -0.215 | zotarolimus 0.066 | idasanutlin -0.009 | [1] 0.082 | lapatinib -0.05 | pictilisib 0.073 | crizotinib -0.337 | [7] -0.095 | duvelisib -0.045 | gandotinib 0.091 | [5] 0.029 | doramapimod -0.043 | ispinesib 0.038

MED13L (UniProt Q71F56)
inactive: zotarolimus -0.065 | [1] -0.063 | lapatinib 0.069 | [3] 0.101 | [7] 0.138

MBD2 (UniProt Q9UBB5)
inactive: filanesib 0.256 | zotarolimus 0.056 | idasanutlin 0.039 | alisertib -0.042 | [1] -0.16 | gefitinib -0.019 | [4] -0.074 | lapatinib 0.118 | pictilisib 0.145 | [2] -0.082 | [3] -0.066 | [7] 0.169 | duvelisib -0.086 | gandotinib 0.037 | tozasertib 0.058 | [5] 0.043 | ispinesib 0.072

MED31 (UniProt Q9Y3C7)
inactive: [6] -0.114 | alisertib -0.035 | gefitinib 0.081 | [4] -0.036 | crizotinib -0.145 | doramapimod 0.124 | ispinesib -0.001

MEF2A isoform 2 (UniProt Q02078)
inactive: [6] -0.01 | zotarolimus -0.083 | alisertib -0.098 | [1] 0.046 | gefitinib 0.008 | [4] 0.061 | lapatinib 0.055 | pictilisib -0.117 | crizotinib 0.014 | [7] 0.024 | gandotinib 0.186 | doramapimod 0.019

Pulled one by one from the list above, two records:
MEGF10 (UniProt Q96KG7)
inactive: [1] -0.044 | lapatinib 0.136 | tozasertib -0.222

MBD2 (UniProt Q9UBB5)
inactive: filanesib 0.256 | zotarolimus 0.056 | idasanutlin 0.039 | alisertib -0.042 | [1] -0.16 | gefitinib -0.019 | [4] -0.074 | lapatinib 0.118 | pictilisib 0.145 | [2] -0.082 | [3] -0.066 | [7] 0.169 | duvelisib -0.086 | gandotinib 0.037 | tozasertib 0.058 | [5] 0.043 | ispinesib 0.072

Further records:

MFSD6 (UniProt Q6ZSS7)
inactive: filanesib 0.082 | zotarolimus -0.042 | idasanutlin -0.212 | alisertib 0.106 | gefitinib 0.187 | [4] 0.022 | pictilisib 0.125 | [2] -0.017 | [3] -0.184 | [7] 0.056 | duvelisib -0.017 | gandotinib -0.055 | [5] -0.187

MEX3B (UniProt Q6ZN04)
inactive: [1] -0.052 | gefitinib 0.13 | lapatinib -0.183 | tozasertib -0.109 | ispinesib -0.43

MED21 (UniProt Q13503)
inactive: zotarolimus 0.091 | idasanutlin 0.199 | alisertib 0.012 | [1] -0.132 | gefitinib -0.396 | [4] -0.026 | lapatinib -0.089 | pictilisib -0.075 | [7] -0.2 | gandotinib 0.086 | tozasertib 0.092 | ispinesib 0.325

MEX3C (UniProt Q5U5Q3)
inactive: alisertib 0.181 | [4] -0.063 | ispinesib 0.029

MFSD9 (UniProt Q8NBP5)
inactive: zotarolimus -0.027 | alisertib 0.023 | [1] 0.047 | gefitinib 0.273 | [4] 0.147 | lapatinib -0.073 | [7] 0.054 | duvelisib 0.032 | [5] -0.029

MATK isoform 2 (UniProt P42679)
inactive: zotarolimus -0.035 | gefitinib -0.02 | [7] 0.154 | duvelisib 0.035 | [5] -0.08

MEF2C isoform 2 (UniProt Q06413)
inactive: [3] -0.004 | tozasertib 0.127

METTL15 (UniProt A6NJ78)
inactive: idasanutlin -0.228 | [3] 0.556 | duvelisib 0.193 | tozasertib 0.135 | [5] 0.121

METTL17 isoform 3 (UniProt Q9H7H0)
inactive: filanesib 0.162 | zotarolimus 0.003 | idasanutlin 0.056 | alisertib -0.078 | [1] 0.149 | [4] 0.059 | lapatinib 0.059 | [2] 0 | [7] 0.139 | ispinesib -0.091

MAST2 (UniProt Q6P0Q8)
inactive: ispinesib 0.052

MCEE (UniProt Q96PE7)
inactive: filanesib -0.035 | zotarolimus -0.04 | idasanutlin 0.068 | alisertib -0.034 | [1] 0.012 | gefitinib 0.059 | [4] 0.079 | lapatinib -0.042 | pictilisib -0.108 | [2] -0.038 | [3] 0.085 | [7] -0.073 | duvelisib 0.026 | gandotinib -0.182 | tozasertib -0.049 | [5] -0.043 | ispinesib -0.085

MBNL2 (UniProt Q5VZF2)
inactive: [6] -0.303 | idasanutlin 0 | [1] 0.055 | lapatinib -0.031 | pictilisib -0.038 | crizotinib 0.098 | gandotinib 0.118 | doramapimod 0.117 | ispinesib 0.089

METTL9 (UniProt Q9H1A3)
inactive: zotarolimus 0.113 | idasanutlin 0 | alisertib 0.046 | [1] 0.014 | [4] -0.007 | lapatinib -0.094 | pictilisib -0.061 | [7] -0.123 | duvelisib -0.184 | gandotinib 0.017 | tozasertib -0.019 | [5] -0.109 | ispinesib -0.12

MDK (UniProt P21741)
inactive: filanesib 0.552 | zotarolimus -0.113 | idasanutlin 0.52 | alisertib -0.025 | [1] -0.022 | gefitinib 0.043 | [4] -0.156 | lapatinib 0.083 | pictilisib -0.045 | [2] -0.215 | [7] 0.053 | duvelisib -0.063 | gandotinib 0.06 | tozasertib 0.139 | [5] 0.036

MFSD1 isoform 6 (UniProt Q9H3U5)
active: ispinesib -0.367
inactive: filanesib -0.123 | zotarolimus -0.108 | idasanutlin -0.01 | alisertib -0.035 | [1] 0.019 | gefitinib -0.021 | [4] 0.181 | lapatinib -0.026 | pictilisib 0.055 | [2] 0.035 | [3] 0.076 | [7] -0.03 | gandotinib -0.077

MFSD12 isoform 3 (UniProt Q6NUT3)
inactive: filanesib -0.197 | zotarolimus 0.024 | idasanutlin -0.097 | pictilisib 0.069 | [2] 0.17 | [7] -0.213 | gandotinib -0.122 | [5] 0.065

MED9 (UniProt Q9NWA0)
inactive: [6] -0.071 | alisertib -0.117 | gefitinib -0.071 | [4] 0.073 | pictilisib 0.163 | crizotinib -0.075 | duvelisib 0.061 | gandotinib 0.038 | [5] -0.155 | doramapimod 0.072 | ispinesib 0.228

MBIP (UniProt Q9NS73)
inactive: [6] -0.025 | idasanutlin 0.001 | alisertib -0.231 | [1] 0.069 | [4] 0.081 | lapatinib 0.012 | crizotinib 0.048 | tozasertib -0.044 | doramapimod 0.016 | ispinesib -0.096

MAU2 (UniProt Q9Y6X3)
inactive: filanesib -0.304 | alisertib -0.104 | [1] 0.03 | [4] 0.091 | lapatinib -0.05 | pictilisib 0.215 | [2] -0.243 | gandotinib -0.016 | tozasertib 0 | ispinesib 0.094

METTL26 (UniProt Q96S19)
inactive: alisertib 0.039 | [1] -0.032 | gefitinib 0 | [4] 0.066 | lapatinib -0.11

MCTS2P, A0A3B3IRV3
inactive: gefitinib 0.022

MEGF8 (UniProt Q7Z7M0)
inactive: [6] -0.25 | idasanutlin -0.316 | gefitinib 0.106 | crizotinib -0.242 | tozasertib -0.161 | doramapimod 0.374

MED11 (UniProt Q9P086)
inactive: [6] 0.274 | alisertib -0.09 | [4] 0.045 | crizotinib -0.095 | tozasertib 0.009 | doramapimod 0.131

MASP1 isoform 2 (UniProt P48740)
inactive: filanesib -0.178 | zotarolimus 0.019 | pictilisib -0.143 | [2] -0.086 | [7] 0.652 | gandotinib -0.07

METTL7B (UniProt Q6UX53)
inactive: idasanutlin 0.095 | pictilisib 0.117 | [3] 0.022 | gandotinib -0.215
